Literature values as cited in patent US20030096014A1, “Solid pharmaceutical compositions for oral administration comprising itraconazole” (priority 2001, published 2003).

solubility in water: only very sparingly soluble
Structure (SMILES): CCC(C)n1ncn(-c2ccc(N3CCN(c4ccc(OCC5COC(Cn6cncn6)(c6ccc(Cl)cc6Cl)O5)cc4)CC3)cc2)c1=O (stereo not shown) [itraconazole, Itraconazole]
